Data from doi:10.1101/2025.10.01.678329.
No constants are given. Whether binding was seen depends on the method and setting. Binding seen in cells or lysates may run through a third protein. Some results given as binding are weak or reduced against the parent protein; the word gives no strength. For some assays here: Tags and fused reporters may be left off the sequences shown. Values belong to the binder of their own block, whether it stands above or below them.

By UniProt entry, the sequences of proteins in these tests, tags left out.
UniProt Q7Z2W4: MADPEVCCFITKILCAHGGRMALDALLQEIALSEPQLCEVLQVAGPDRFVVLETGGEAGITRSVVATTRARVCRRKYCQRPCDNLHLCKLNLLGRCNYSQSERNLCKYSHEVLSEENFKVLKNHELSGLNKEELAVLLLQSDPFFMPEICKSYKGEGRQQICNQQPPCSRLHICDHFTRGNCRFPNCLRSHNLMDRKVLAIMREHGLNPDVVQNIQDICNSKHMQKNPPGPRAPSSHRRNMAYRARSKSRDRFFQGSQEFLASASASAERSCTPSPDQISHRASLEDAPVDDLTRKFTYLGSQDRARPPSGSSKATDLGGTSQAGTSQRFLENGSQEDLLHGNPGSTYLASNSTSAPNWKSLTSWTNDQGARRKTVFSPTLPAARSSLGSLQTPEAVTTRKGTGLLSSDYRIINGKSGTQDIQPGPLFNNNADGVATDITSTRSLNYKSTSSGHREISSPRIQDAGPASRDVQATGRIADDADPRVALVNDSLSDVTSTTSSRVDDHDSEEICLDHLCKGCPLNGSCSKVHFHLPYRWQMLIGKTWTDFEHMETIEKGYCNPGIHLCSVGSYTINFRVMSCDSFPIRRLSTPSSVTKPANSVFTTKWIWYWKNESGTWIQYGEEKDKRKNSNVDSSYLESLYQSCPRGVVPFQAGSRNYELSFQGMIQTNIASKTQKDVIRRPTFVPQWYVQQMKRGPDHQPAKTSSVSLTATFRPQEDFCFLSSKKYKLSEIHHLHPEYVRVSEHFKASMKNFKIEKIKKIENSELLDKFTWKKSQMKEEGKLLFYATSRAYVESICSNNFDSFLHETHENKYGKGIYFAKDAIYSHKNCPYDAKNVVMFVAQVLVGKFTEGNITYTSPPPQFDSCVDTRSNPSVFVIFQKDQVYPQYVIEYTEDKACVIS

What was measured:
[1] = molecular target: T1, 2'-5'-oligoadenylate synthetase 1 (OAS1)-FLAG (human) (UniProt P00973); assay: co-IP
T1 sequence: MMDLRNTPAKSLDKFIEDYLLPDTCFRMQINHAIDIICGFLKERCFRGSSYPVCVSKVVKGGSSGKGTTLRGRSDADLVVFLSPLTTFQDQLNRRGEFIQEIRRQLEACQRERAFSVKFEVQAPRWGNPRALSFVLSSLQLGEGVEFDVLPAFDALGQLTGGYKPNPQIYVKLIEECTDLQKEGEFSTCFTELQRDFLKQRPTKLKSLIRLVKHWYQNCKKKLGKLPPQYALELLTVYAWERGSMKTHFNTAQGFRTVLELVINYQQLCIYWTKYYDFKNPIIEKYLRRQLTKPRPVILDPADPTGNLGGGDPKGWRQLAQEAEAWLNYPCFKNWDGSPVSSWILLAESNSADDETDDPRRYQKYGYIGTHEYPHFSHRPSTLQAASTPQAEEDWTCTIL

[2] = molecular target: ZAP-L-FLAG (human) (UniProt Q7Z2W4); assay: co-IP

binding [1]: binds
B1: TRIM58 C57S C60S (enzyme, UniProt Q8NG06 1-486)
chain: MAWAPPGERLREDARCPVCLDFLQEPVSVDCGHSFCLRCISEFCEKSDGAQGGVYASPQSRGPFRPSGFRPNRQLAGLVESVRRLGLGAGPGARRCARHGEDLSRFCEEDEAALCWVCDAGPEHRTHRTAPLQEAAGSYQVKLQMALELMRKELEDALTQEANVGKKTVIWKEKVEMQRQRFRLEFEKHRGFLAQEEQRQLRRLEAEERATLQRLRESKSRLVQQSKALKELADELQERCQRPALGLLEGVRGVLSRSKAVTRLEAENIPMELKTACCIPGRRELLRKFQVDVKLDPATAHPSLLLTADLRSVQDGEPWRDVPNNPERFDTWPCILGLQSFSSGRHYWEVLVGEGAEWGLGVCQDTLPRKGETTPSPENGVWALWLLKGNEYMVLASPSVPLLQLESPRCIGIFLDYEAGEISFYNVTDGSYIYTFNQLFSGLLRPYFFICDATPLILPPTTIAGSGNWASRDHLDPASDVRDDHL

binding [2]: binds
B2: OASL (protein, UniProt Q15646 1-514)
chain: MALMQELYSTPASRLDSFVAQWLQPHREWKEEVLDAVRTVEEFLRQEHFQGKRGLDQDVRVLKVVKVGSFGNGTVLRSTREVELVAFLSCFHSFQEAAKHHKDVLRLIWKTMWQSQDLLDLGLEDLRMEQRVPDALVFTIQTRGTAEPITVTIVPAYRALGPSLPNSQPPPEVYVSLIKACGGPGNFCPSFSELQRNFVKHRPTKLKSLLRLVKHWYQQYVKARSPRANLPPLYALELLTIYAWEMGTEEDENFMLDEGFTTVMDLLLEYEVICIYWTKYYTLHNAIIEDCVRKQLKKERPIILDPADPTLNVAEGYRWDIVAQRASQCLKQDCCYDNRENPISSWNVKRARDIHLTVEQRGYPDFNLIVNPYEPIRKVKEKIRRTRGYSGLQRLSFQVPGSERQLLSSRCSLAKYGIFSHTHIYLLETIPSEIQVFVKNPDGGSYAYAINPNSFILGLKQQIEDQQGLPKKQQQLEFQGQVLQDWLGLGIYGIQDSDTLILSKKKGEALFPAS
